Assay results: PubChem BioAssay AID977622 (Broad Institute, 2014)
Screen size: about 1,900 compounds; fewer than 10 were called active. Roughly 39% stayed inconclusive and do not appear here.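 How the source made its calls: active means Green signal of the normal strain falls at least twice as much as red signal of the resistant mutant, with overall culture growth loss under a set limit; inconclusive means no clear call, values can overlap the other calls; inactive means the rest.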 The entries are a selection whose mix differs from that of the whole data set.

Assay: growth inhibition of wild-type GFP E. coli, dose response, h38 mutant RFP, cherry-pick (AID 977622)
Details: E. coli WT ribosome GFP fluorescence, mixed culture, 24 h; at 50 µM (top of the series)

Activity change, negative = inhibition, inactive:
C[C@@H](Nc1nc(-c2ccccc2)nc2c1oc1ccccc12)C(=O)O -3.34
COc1ccc(C2=NN(C(=O)c3cccnc3)C(c3ccccc3)C2)cc1 (stereo unspecified) -0.496
Cc1ccc(NC(=O)CCCSc2ccccc2)cc1S(=O)(=O)N1CCOCC1 2.61
COc1cccc(NC(=O)C(c2ccccc2)N2CCN(c3ccccn3)CC2)c1 (stereo unspecified) -6.81
OC(COc1ccc(Cl)cc1)CN1CCN(c2ccccn2)CC1 (stereo unspecified) -12.3
CN(C)S(=O)(=O)c1cccc(NC(=O)c2ccc3c(c2)S(=O)(=O)N=C2CCCCCN23)c1 -1.75
Cc1n[nH]c(C)c1S(=O)(=O)N1CCCC(C(=O)Nc2ccc(Br)cc2)C1 (stereo unspecified) -10.5
COc1ccc(CNC(=O)c2sc3nc4c(c(C(F)(F)F)c3c2N)CCC4)cc1OC -5.32
O=C(COc1cccc2c1CCN(Cc1ccccc1F)C2=O)N1CCCCC1 0.231
COc1ccc(OC)c(-c2nn(-c3ccccc3)cc2C(=O)N2CCc3ccccc3C2)c1 -5.75
COC(=O)CN1C(=S)N(c2ccc(F)cc2)C(=O)C1CC(=O)Nc1ccc(OC)cc1 (stereo unspecified) -5.3
Cc1cccc(OCCC(=O)N(C)CC(=O)Nc2cccc3ccccc23)c1 -8.41
CCOc1ccccc1N1CC(C(=O)Nc2cccc(S(=O)(=O)N3CCCCC3)c2)CC1=O (stereo unspecified) -4.5
O=S(=O)(c1ccc(Cl)cc1)N1CCN=C1SCc1cccc(Cl)c1 1.26
O=C(Nc1ccccc1N1CCOCC1)C1CCCCN1S(=O)(=O)c1ccccc1 (stereo unspecified) -15.4
COc1ccc(CC(=O)Nc2cc(S(=O)(=O)Nc3ccc(OC)cc3)ccc2OC)cc1 4.32
CCN(CC)c1nc(Oc2ccc(C(=O)OC)cc2)nc(N2CCOCC2)n1 -8.27
Cc1ccc(Cc2c(-c3cccc(Br)c3)nc3ccc(C)cn23)cc1 2
Cc1cc(C(=O)Nc2ccc(Cl)cc2)c(C)n1Cc1cccs1 -7.89
Cc1ccc(N2C(=S)NC3c4cc(Cl)ccc4OC2(C)C3C(=O)N(C)C)cc1 (stereo unspecified) -10.7
CC(=O)Nc1ccc(CNc2nc(NCCN(C)C)nc3cc(-c4ccccc4)sc23)cc1 4.04
COc1ccc(C#Cc2ccc([C@H]3[C@@H](CO)N4CCCCN(C(=O)Nc5cccc(F)c5)C[C@H]34)cc2)cc1 -1.39
COc1cc(OC)cc(-c2nc3ccccc3c(=O)n2OC(=O)c2ccc(C)c(C)c2)c1 -3.36
O=C(O)CC1(CC(=O)Nc2ccc3sccc3c2)CCCCC1 -12.3
Fc1ccc(Br)cc1SCCc1ccncc1 -8.16
C[C@@H]1CN([C@@H](C)CO)C(=O)c2cc(NS(=O)(=O)c3ccccc3)ccc2O[C@@H]1CN(C)Cc1ccc(C(=O)Nc2ccccc2N)cc1 -3.33
COc1cc2c(cc1OC)C1(C)N(CC2)C(C(C)=O)=NN1c1ccc(Cl)cc1 (stereo unspecified) 2.13
COc1ccccc1-c1noc2ncnc(Nc3cccc(C)c3C)c12 4.96
N#Cc1nc(COc2cccc(Cl)c2)oc1N1CCCC1 -4.18
CCOC(=O)c1ccc(NC(=O)c2ccc(OC(C)C)c(OC)c2)cc1 -2.49
Cn1c(=O)c2c(ncn2CC(O)CNc2ccc(F)cc2)n(C)c1=O (stereo unspecified) 6.36
O=C(O)CC(CC(=O)Nc1ccc2ccccc2n1)c1ccccc1 (stereo unspecified) 3.62
Cc1ccc(S(=O)(=O)Nc2ccccc2CNc2cccc(C)n2)cc1 -12.7
CN1N=C2c3ccccc3CCC2C1c1ccc(F)cc1 (stereo unspecified) -5.58
CCOC(=O)C(CC)Sc1cc(C)nc2ccc(OC)cc12 (stereo unspecified) -2
CN(Cc1ccc([N+](=O)[O-])cc1)c1ccccc1 -1.08
COc1cccc(-c2ccc(NC(=O)C3CCCN(Cc4cnn(C(C)C)c4)C3)cc2)c1 (stereo unspecified) 2.6
COc1ccc([C@H]2C[C@H](O)C[C@@H](CCn3cc(-c4ccccc4)nn3)O2)cc1 2.17
O=C(Nc1c(S(=O)(=O)c2ccc(Cl)cc2)csc1Br)c1ccccc1Cl 7.56
Cc1cc(C)cc(NC(=O)COC(=O)CC2CCCC2)c1 -3.69
NS(=O)(=O)c1ccc(NC(=O)c2cc(Cl)sc2Cl)cc1 -3.66
Cc1ccc(S(=O)(=O)NC(C)C(=O)NCc2ccc(Cl)cc2)cc1 (stereo unspecified) -10.9
CC1CCCC(NC(=O)COC(=O)[C@@H]2CC(O)CN2S(=O)(=O)c2ccc3c(c2)OCCO3)C1C (stereo partly specified) -1.15
Cc1ccc2oc(=O)n(CCCOc3ccccc3C)c2c1 -7.75
COC(=O)c1ccc2nc(-c3ccc(F)cc3)c(Cc3cccc(F)c3)n2c1 1.79
CCc1nc2ccccc2c(C(=O)OCC(=O)NC(=O)c2cccn2C)c1C -12.3
Cc1ccc(NC(=O)c2ccccc2F)c(NC(=O)c2ccccc2F)c1 -1.05
CNC(=O)c1ccsc1NC(=O)c1ccc(S(=O)(=O)N2CCc3ccccc32)cc1 -14.8
Cc1cc(SCC(=O)c2cccs2)n2nc(C)c(-c3ccc(Cl)cc3)c2n1 0.716
CCOC(=O)Cc1csc(SCC(=O)Nc2cc(C)ccc2OC)n1 4.94
Cc1onc(-c2ccccc2Cl)c1C(=O)OCC(=O)c1ccccc1 -4.52
CC(=O)Oc1ccc(N(c2ccccc2)S(=O)(=O)c2ccc(C)cc2)cc1 -9.59
O=C(COc1ccc(Br)cc1)Nc1ccc(C(=O)Nc2ccccc2C(=O)O)cc1 -7.1
CCOc1ccc2[nH]c3c(NCCN(C)C)ncnc3c2c1 6.49
Cc1cc(C(N)=O)nn1-c1c(Cl)cc(Cl)cc1Cl -2.24
CC1Cc2cc(S(=O)(=O)N3CCN(c4cccc(Cl)c4)CC3)ccc2N1C(=O)C1CC1 (stereo unspecified) -2.93
COc1cc(CC(=O)Nc2nc(C)cs2)cc(OC)c1OC -3.89
CN1OC[C@@H]2CN(C(=O)c3ccco3)[C@H](c3ccc(-c4ccc(C#N)cc4)cc3)C[C@@H]21 -3.66
C[C@H]1CN([C@@H](C)CO)C(=O)CCCn2nncc2CO[C@@H]1CN(C)Cc1ccccc1C(F)(F)F 0.129
CC1(C(=O)NS(=O)(=O)c2cccc(F)c2)CCN1C(=O)C1(c2ccc(Cl)cc2)CCC1 (stereo unspecified) -8.6
O=C(Nc1ccn(Cc2ccc(Cl)cc2)n1)c1ccccc1 -5.44
O=C(CCC(=O)N1CCN(c2ccc(F)cc2)CC1)c1ccc(F)cc1 1.29
COc1ccc(C2CC(c3ccc(Br)cc3)=NN2C(=O)CN2CCCC2)cc1 (stereo unspecified) -0.922
O=C(NCCCN1CCOCC1)c1sc2cc([N+](=O)[O-])ccc2c1Cl -5.45
C[C@@H]1CN([C@@H](C)CO)C(=O)c2cccc(NC(=O)c3nc4ccccc4s3)c2O[C@@H]1CN(C)CC1CC1 -4.26
COc1cc[n+]([O-])cc1[N+](=O)[O-] -1.72
COc1ccc(C(=O)COc2ccc(F)cc2)c(O)c1 -9.25
Cc1ccc(NS(=O)(=O)c2ccc3c(c2)CCC(=O)N3)cc1C -10.7
Cc1noc(C)c1S(=O)(=O)N(Cc1ccccc1)C(C)C -5.07
CC(NC(=O)c1ccc(CS(=O)(=O)c2ccc(Cl)cc2)o1)c1ccc2c(c1)OCCO2 (stereo unspecified) 10.6
C=CCN(c1ccccc1)S(=O)(=O)c1ccc(Cl)c(C(=O)OCC(=O)NCCCN2CCCC2=O)c1 -4.56
CCCN1C(=O)C(O)(c2c(C)[nH]c3ccccc23)c2ccccc21 (stereo unspecified) -8.52
CCOc1ccc(-c2nc(-c3cccs3)c(CC(=O)O)s2)cc1OC -8.31
COC(=O)c1cc(C)sc1NC(=O)CC1Nc2ccccc2NC1=O (stereo unspecified) 8.03
CCc1nnc(NC(=O)CSc2ncc(-c3ccccc3)[nH]2)s1 -5.52
COc1cccc(NC(=O)C2CCC(CNS(=O)(=O)c3cccc4cccnc34)CC2)c1 (stereo unspecified) -7.46
NS(=O)(=O)c1ccc(CCNC(=O)CCCCCNc2nc(=S)[nH]c3ccccc23)cc1 -8.09
COC(=O)c1nc(-c2ccc(C)cc2)[nH]c1C(C)(C)C -3.72
Cc1ccc(C(=O)NCC(=O)OCC(=O)Nc2cccc(S(=O)(=O)N3CCCC3)c2)cc1C -7.61
Fc1ccccc1C1CCN(Cc2nc(CC3CC3)no2)C1 (stereo unspecified) -4.21
CC1(c2ccc3ccccc3c2)NC(=O)N(CC(=O)N2CCN(c3ccccc3O)CC2)C1=O (stereo unspecified) -9.76
COc1ccc(CN2C(=O)CC(Cc3cc(C)cc(C)c3)C2=O)cc1OC (stereo unspecified) 5.15
Cc1cc2nc(SCC(=O)O)nc(C)c2cc1C -8.84
O=C(COC(=O)c1ccc(O)cc1)Nc1ccccc1 5.16
NC(=O)C1CCN(c2cc(Cl)ccc2[N+](=O)[O-])CC1 7.8
CCN(CC)S(=O)(=O)c1ccc(O)c(C(=O)OCC(=O)NC23CC4CC(CC(C4)C2)C3)c1 -3.51
Fc1ccc(-c2nc3c(Cl)cc(C(F)(F)F)cn3c2Cc2ccsc2)cc1 3.36
Cc1cc(C)cc(NS(=O)(=O)c2c(C(=O)N3CCCCCC3)c(C)n(C)c2C)c1 2.81
CCNc1nc(N)c(C(=O)C23CC4CC(CC(C4)C2)C3)s1 -5.98
COc1ccccc1CC(=O)NCCc1c[nH]c2ccccc12 -3.6
O=C(c1cccs1)c1c[nH]cc1-c1ccccc1 4.25
COCc1nnc(NC(=O)c2ccc(S(=O)(=O)N3CCCC3)cc2)o1 -3.2
Cc1cccc(N2CCN(Cc3nc(-c4ccc(F)cc4F)oc3C)CC2)n1 -5.91
O=C(Nc1cccc(Cl)c1)N1C[C@@H]2[C@H](c3ccccc31)[C@H](CO)N2Cc1ccncc1 -5.1
Cc1ncoc1C(=O)NCCC(c1ccccc1)c1ccccc1 -15.8
CCOC(=O)c1sc(Nc2cccc(Cl)c2)nc1C 1.1
O=C(NC1CCCCC1)C(c1cccc2ccccc12)n1c(=O)c(-c2ccco2)nc2ccccc21 (stereo unspecified) -4.51
O=C(O)CNC(=O)C(c1ccccc1)c1ccccc1 -1.41
CSc1ccccc1NC(=O)CN(c1cccc(C)c1)S(C)(=O)=O -9.25
COc1ccc(NS(=O)(=O)c2ccc(Cl)c(NC(=O)c3ccccc3F)c2)cc1 -11.4
CSc1ccc(CN(C)CC(=O)NC(C)c2ccccc2)cc1 (stereo unspecified) -1.1
O=C(c1cc(COc2ccc(F)cc2F)on1)N1CCCC(c2ccccc2)C1 (stereo unspecified) 5.75
CN(C)S(=O)(=O)c1cccc(C(=O)Nc2ccc(C(=O)Nc3cccc(S(N)(=O)=O)c3)cc2)c1 -4.39
O=C(CN(c1ccc(F)cc1)S(=O)(=O)c1ccccc1)Nc1ccccc1C(=O)O -6.83
O=C(CSc1nnc(COc2cccc3cccnc23)o1)c1ccc(F)cc1 -6.29
Cc1ccn2cc(-c3cccc(NC(=O)c4cccs4)c3)nc2c1 -3.23

Copied from the listing (4 entries):
Activity change, negative = inhibition, inactive:
Cc1cc(C(N)=O)nn1-c1c(Cl)cc(Cl)cc1Cl -2.24
CC1Cc2cc(S(=O)(=O)N3CCN(c4cccc(Cl)c4)CC3)ccc2N1C(=O)C1CC1 (stereo unspecified) -2.93
COc1cc(CC(=O)Nc2nc(C)cs2)cc(OC)c1OC -3.89
CN1OC[C@@H]2CN(C(=O)c3ccco3)[C@H](c3ccc(-c4ccc(C#N)cc4)cc3)C[C@@H]21 -3.66
